Results are given in words; binding and its absence hold for the method and conditions named. In cells and extracts the contact can be indirect. Sequences can lack the tags named with a protein.
Target: T1, CEP44-Flag (siRNA-resistant CEP44 cDNA, tetracycline-inducible, in RPE1 cells) (human) (UniProt Q9C0F1)
T1 sequence: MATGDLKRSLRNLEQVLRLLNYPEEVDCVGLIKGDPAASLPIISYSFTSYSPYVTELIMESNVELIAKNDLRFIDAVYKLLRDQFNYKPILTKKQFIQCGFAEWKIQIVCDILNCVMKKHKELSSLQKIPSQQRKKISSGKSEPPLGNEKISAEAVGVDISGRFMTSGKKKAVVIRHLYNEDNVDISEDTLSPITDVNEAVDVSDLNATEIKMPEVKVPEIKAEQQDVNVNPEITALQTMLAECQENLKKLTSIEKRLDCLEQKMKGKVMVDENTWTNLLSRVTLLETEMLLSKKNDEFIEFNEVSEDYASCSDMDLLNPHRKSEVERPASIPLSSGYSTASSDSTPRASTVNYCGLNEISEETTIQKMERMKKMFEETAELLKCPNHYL
Experiment: co-IP; Anti-FLAG M2 beads; lysate of 3 x 10^6 RPE1 cells expressing CEP44-Flag constructs; lysis in 250 mM NaCl, 10 mM Tris-Cl, 0.5 mM EDTA, 0.5% NP-40, Benzonase, pH 7.5; 2.5 h at 4 °C; washes with 150 mM NaCl, 10 mM Tris-Cl pH 7.5; immunoblot

Chains of the proteins cited; added tags and fusions are not shown.
UniProt Q9C0D2: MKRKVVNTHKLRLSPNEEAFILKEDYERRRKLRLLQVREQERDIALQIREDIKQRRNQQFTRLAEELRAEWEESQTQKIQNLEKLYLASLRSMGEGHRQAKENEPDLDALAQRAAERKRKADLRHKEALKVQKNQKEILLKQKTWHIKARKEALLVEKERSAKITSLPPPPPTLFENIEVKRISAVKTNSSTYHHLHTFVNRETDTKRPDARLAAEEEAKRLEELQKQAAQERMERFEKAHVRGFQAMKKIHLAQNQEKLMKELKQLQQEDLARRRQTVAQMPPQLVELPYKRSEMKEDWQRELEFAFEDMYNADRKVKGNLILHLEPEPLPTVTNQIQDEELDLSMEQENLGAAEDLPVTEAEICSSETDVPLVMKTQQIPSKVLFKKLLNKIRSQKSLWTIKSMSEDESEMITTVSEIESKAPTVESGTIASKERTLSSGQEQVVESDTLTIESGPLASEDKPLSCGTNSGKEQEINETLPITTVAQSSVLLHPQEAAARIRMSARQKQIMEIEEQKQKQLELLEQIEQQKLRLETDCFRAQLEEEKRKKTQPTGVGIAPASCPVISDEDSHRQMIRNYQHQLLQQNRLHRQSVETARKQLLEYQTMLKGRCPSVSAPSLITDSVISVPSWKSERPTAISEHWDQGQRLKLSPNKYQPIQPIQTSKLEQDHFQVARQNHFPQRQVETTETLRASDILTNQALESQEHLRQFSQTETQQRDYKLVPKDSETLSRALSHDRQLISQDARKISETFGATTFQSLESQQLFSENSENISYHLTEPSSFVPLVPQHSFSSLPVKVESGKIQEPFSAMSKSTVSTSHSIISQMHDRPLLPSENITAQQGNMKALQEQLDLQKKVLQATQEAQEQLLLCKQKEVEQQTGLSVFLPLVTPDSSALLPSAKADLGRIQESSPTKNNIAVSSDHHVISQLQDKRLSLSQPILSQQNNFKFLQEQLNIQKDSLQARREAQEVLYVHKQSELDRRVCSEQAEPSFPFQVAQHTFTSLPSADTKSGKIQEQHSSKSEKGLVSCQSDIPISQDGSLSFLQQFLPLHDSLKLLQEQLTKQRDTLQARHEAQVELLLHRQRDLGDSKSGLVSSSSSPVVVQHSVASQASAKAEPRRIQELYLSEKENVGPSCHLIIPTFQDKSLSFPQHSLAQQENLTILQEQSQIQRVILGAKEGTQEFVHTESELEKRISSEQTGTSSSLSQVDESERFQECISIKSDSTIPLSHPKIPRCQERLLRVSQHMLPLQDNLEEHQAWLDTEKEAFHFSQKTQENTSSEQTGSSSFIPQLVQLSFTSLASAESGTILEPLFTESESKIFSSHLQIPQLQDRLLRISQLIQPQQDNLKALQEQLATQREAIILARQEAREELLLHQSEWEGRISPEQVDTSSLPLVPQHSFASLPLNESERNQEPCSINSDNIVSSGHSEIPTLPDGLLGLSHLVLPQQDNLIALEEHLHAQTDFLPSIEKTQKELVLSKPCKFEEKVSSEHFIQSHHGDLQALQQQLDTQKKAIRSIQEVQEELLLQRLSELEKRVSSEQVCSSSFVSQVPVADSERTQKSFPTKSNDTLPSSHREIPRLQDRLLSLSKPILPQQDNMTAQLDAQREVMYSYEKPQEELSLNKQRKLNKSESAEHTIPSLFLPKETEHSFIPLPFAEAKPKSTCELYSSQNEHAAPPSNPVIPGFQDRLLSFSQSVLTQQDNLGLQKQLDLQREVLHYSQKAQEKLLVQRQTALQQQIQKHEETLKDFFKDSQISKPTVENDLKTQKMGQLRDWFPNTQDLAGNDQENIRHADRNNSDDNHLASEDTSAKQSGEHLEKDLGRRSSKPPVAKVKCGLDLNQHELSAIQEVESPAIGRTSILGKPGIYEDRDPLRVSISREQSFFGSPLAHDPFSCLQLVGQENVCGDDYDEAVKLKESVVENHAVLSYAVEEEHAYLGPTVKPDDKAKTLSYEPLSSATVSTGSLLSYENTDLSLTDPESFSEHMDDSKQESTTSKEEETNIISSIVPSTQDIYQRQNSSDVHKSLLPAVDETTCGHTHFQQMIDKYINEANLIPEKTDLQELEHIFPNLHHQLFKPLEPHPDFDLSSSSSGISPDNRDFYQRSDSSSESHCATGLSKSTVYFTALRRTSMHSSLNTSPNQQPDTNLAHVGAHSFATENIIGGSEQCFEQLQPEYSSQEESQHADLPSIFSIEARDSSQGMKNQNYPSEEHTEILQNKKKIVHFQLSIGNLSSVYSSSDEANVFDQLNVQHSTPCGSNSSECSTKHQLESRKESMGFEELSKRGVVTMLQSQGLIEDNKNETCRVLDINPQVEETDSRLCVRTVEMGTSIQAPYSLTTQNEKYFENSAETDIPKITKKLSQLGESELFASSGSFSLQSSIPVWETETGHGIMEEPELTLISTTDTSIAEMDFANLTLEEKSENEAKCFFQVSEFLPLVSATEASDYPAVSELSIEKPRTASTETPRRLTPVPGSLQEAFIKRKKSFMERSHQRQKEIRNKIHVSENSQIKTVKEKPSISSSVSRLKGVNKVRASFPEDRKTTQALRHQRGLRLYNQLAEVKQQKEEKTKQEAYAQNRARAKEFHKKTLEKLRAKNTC

binding: no binding
Substance: CEP295 (endogenous, RPE1 cells) (from UniProt Q9C0D2 1-2601)

From article PMC7021698
